We go through 7 sequences from PMC9947222.

The subject of series [1] is B1-8hi B cell receptor (NP-specific IgM/IgD, lambda1 light chain) (mouse (B1-8hi knock-in)). Briefly: flow cytometry. The settings on record: B1-8hi B cells, LNA/2'-OMe as N0, protein on the cell surface.
Series [2] has the same test system. Description: flow cytometry and confocal microscopy. As to conditions: B1-8hi B cells, no hapten; LNA and 2'-OMe: Q1 mC+CmG+TmCmCmT+GmA+GmCmC; Q2 mCmA+CmA+GmTmG+GmA+CmGmG; Q3 mG+GmC+TmCmAmCmC+GmA+TmC; Q4 mGmA+TmC+GmGmAmC+TmG+TmG; 5'-NH2-C6; protein on the cell surface; label: AF647 on Q2; synthetic backbone. Background: A flow cytometer gives signals particle by particle.

For at least one entry, the source does not settle the construct or the ends of the probe. Where cells or extracts were used, other partners may take part. For some of these results: No signal at the amounts used counts as a negative.

Take “CCGTCCTGAGCC / CACAGTGGACGG / GGCTCACCGATC / GATCGGACTGTG [HJ-3xNP]”: the binding result in series [1] (via NP, 5' amino-C6 NP on Q1, Q3 and Q4, label: AF647 on Q2, synthetic backbone) is “binds”.
Take “CCGTCCTGAGCC / CACAGTGGACGG / GGCTCACCGATC / GATCGGACTGTG [HJ-1xNIP]”: the binding result in series [1] (via NIP, lost near 2:1 HJ:BCR, one 5' amino-C6 NIP hapten (carrier strand not stated), label: AF647 on Q2 (Atto488 for FIDA), synthetic …) is on record as “binds”.
Consider “CCGTCCTGAGCC / CACAGTGGACGG / GGCTCACCGATC / GATCGGACTGTG [HJ-1xNP]”, for which the binding result in series [1] (via NP, lost near 2:1 HJ:BCR, one 5' amino-C6 NP hapten (carrier strand not stated), label: AF647 on Q2, synthetic backbone) is recorded as “binds”.
As for “CCGTCCTGAGCC / CACAGTGGACGG / GGCTCACCGATC / GATCGGACTGTG [HJ-0xNP/NIP (naked HJ)]”, the binding result in series [2] is “no binding”.
Take “CCGTCCTGAGCC / CACAGTGGACGG / GGCTCACCGATC / GATCGGACTGTG [HJ-3xNIP]”: in series [1] (via NIP, 5' amino-C6 NIP on Q1, Q3 and Q4, label: AF647 on Q2 (Atto488 for FIDA), synthetic backbone), the binding result is recorded as “binds”.
On to “CCGTCCTGAGCC / CACAGTGGACGG / GGCTCACCGATC / GATCGGACTGTG [HJ-2xNIP]”, for which the binding result in series [1] (via NIP, two 5' amino-C6 NIP haptens (carrier strands not stated), label: AF647 on Q2, synthetic backbone) is “binds”.
On to “CCGTCCTGAGCC / CACAGTGGACGG / GGCTCACCGATC / GATCGGACTGTG [HJ-2xNP]”, for which the binding result in series [1] (via NP, two 5' amino-C6 NP haptens (carrier strands not stated), label: AF647 on Q2, synthetic backbone) is recorded as “binds”.
